Measurements as given in publication PMC4904262 (ACS Medicinal Chemistry Letters, 2016).

What was measured:
PKA = PKA (Homo sapiens, UniProt P17612); details: 1 µM, ATP at Km
CDK9/CYCLINT1 = CDK9/CYCLINT1 (Homo sapiens, UniProt P50750); details: 1 µM, ATP at Km
in vitro [1] = details: human, microsomes
in vivo = details: mouse, iv, 0.2 mg/kg
in vitro [2] = details: mouse, microsomes
MAPKAP-K3 = MAPKAP-K3 (Homo sapiens, UniProt Q16644); details: 1 µM, ATP at Km
MAPKAP-K2 = MAPKAP-K2 (Homo sapiens, UniProt P49137); details: 1 µM, ATP at Km
in vitro [3] = details: rat, microsomes

| Structure (SMILES) | percentage effect (PKA) | percentage effect (CDK9/CYCLINT1) | microsomal CLint (in vitro [1]) | Vd (in vivo) | clearance (in vivo) | microsomal CLint at 1 µM (in vitro [2]) | percentage effect (MAPKAP-K3) | percentage effect (MAPKAP-K2) | microsomal CLint at 1 µM (in vitro [3]) |
| --- | --- | --- | --- | --- | --- | --- | --- | --- | --- |
| COC1CN(C(=O)c2ccc3c(N)ncc(-c4ccc(-c5cnn(C)c5)cc4)c3c2)C1 [Compound 59] | 20% | -14% | < 10 µL/min/mg | 1.62 L/kg | 26.2 mL/min/kg | 38 µL/min/mg | -7% | -9% | – |
| CC(=O)Nc1ccc2c(N)ncc(-c3ccc(-c4cnn(C)c4)cc3)c2c1 [Compound 63] | – | – | < 10 µL/min/mg | – | – | 20 µL/min/mg | – | – | 23 µL/min/mg |
